Results on one substance are retold here after publication PMC8560915.

By UniProt entry, the sequences of proteins in these tests, tags left out. Where a name states a change or a piece, a line headed by the entry shows the natural chain unless it says otherwise.
UniProt O02108: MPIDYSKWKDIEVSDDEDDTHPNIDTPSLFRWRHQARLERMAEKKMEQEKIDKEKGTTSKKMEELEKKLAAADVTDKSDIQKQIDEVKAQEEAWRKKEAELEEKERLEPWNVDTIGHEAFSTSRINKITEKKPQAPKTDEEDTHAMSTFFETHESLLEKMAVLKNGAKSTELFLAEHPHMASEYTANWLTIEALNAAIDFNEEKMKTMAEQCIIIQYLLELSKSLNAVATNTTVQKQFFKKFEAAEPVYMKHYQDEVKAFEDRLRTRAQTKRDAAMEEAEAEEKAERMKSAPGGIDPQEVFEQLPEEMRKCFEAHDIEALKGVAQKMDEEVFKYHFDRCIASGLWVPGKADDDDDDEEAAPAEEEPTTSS
UniProt Q20774: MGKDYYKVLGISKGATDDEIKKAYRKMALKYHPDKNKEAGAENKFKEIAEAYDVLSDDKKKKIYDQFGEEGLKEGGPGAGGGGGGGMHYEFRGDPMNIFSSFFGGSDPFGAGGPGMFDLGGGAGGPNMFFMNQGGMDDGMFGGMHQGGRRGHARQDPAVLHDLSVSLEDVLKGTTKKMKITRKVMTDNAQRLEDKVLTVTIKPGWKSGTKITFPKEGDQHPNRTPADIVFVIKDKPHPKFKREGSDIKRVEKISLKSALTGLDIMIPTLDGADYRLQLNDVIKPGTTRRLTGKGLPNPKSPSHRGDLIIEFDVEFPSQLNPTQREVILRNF

The test has as its target CDC-37·DNJ-13 complex (with *CDC-37) (nematode | C. elegans) (UniProt O02108+Q20774). Briefly: AUC; sedimentation velocity with fluorescence detection; 300 nM *CDC-37 with or without 2 µM binding partners; 42,000 rpm, 20 °C; 40 mM HEPES/KOH pH 7.5, 20 mM KCl, 1 mM DTT, 5 mM MgCl2; with and without ATPγS for HSP-90; both purified.

Results are given in words; binding and its absence hold for the method and conditions named. Some binding calls cover weakened binding; strength is not graded here.

HSP-90 (from UniProt Q18688 1-702): the binding entry was “binds”.
